# Experimental data from the supplement of paper PMC8728848.
# The other results are listed elsewhere or left out.
# How the values were obtained:
# Assay in all cases: glycan array binding signal (z-score within array); higher = stronger binding
# Settings in all cases: glycan notation: IUPAC condensed, linker removed
# [1] = biological target: Fuc(a1-2)Gal(b1-4)GlcNAc(b1-3)Gal(b1-4)GlcNAc(b1-2)Man(a1-3)[Fuc(a1-2)Gal(b1-4)GlcNAc(b1-3)Gal(b1-4)GlcNAc(b1-2)Man(a1-6)]Man(b1-4)GlcNAc(b1-4)GlcNAc
# In short: (§1)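 Columns mapping to the same glycan were averaged after glycan names were converted to IUPAC-condensed notation. The data come from 3228 arrays in the Consortium for Functional Glycomics database, limited to those with an available protein sequence. Binding is reported as a within-array Z-score averaged across arrays of one protein sequence and across linkers.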
# [2] = biological target: Fuc(a1-2)Gal(b1-4)GlcNAc(b1-3)Gal(b1-4)GlcNAc(b1-3)Gal(b1-4)GlcNAc
# In short: as §1
# [3] = biological target: Fuc(a1-2)Gal(b1-4)GlcNAc(b1-3)GalNAc
# In short: as §1
# [4] = biological target: Fuc(a1-2)Gal(b1-4)GlcNAc(b1-3)[Fuc(a1-2)Gal(b1-4)GlcNAc(b1-6)]GalNAc
# In short: as §1
# [5] = biological target: Fuc(a1-2)Gal(b1-4)GlcNAc(b1-3)[Fuc(a1-3)[Gal(b1-4)]GlcNAc(b1-6)]Gal(b1-4)Glc
# In short: as §1
# [6] = biological target: Fuc(a1-2)Gal(b1-4)GlcNAc(b1-6)GalNAc
# In short: as §1
# [7] = biological target: Fuc(a1-2)Gal(b1-4)GlcNAc6S
# In short: as §1
# [8] = biological target: Fuc(a1-2)Gal(b1-4)[Fuc(a1-3)]GlcNAc
# In short: as §1
# [9] = biological target: Fuc(a1-2)Gal(b1-4)[Fuc(a1-3)]GlcNAc(b1-2)Man(a1-3)[Fuc(a1-2)Gal(b1-4)[Fuc(a1-3)]GlcNAc(b1-2)Man(a1-6)]Man(b1-4)GlcNAc(b1-4)[Fuc(a1-6)]GlcNAc
# In short: as §1
# [10] = biological target: Fuc(a1-2)Gal(b1-4)[Fuc(a1-3)]GlcNAc(b1-2)[Fuc(a1-2)Gal(b1-4)[Fuc(a1-3)]GlcNAc(b1-4)]Man(a1-3)[Fuc(a1-2)Gal(b1-4)[Fuc(a1-3)]GlcNAc(b1-2)Man(a1-6)]Man(b1-4)GlcNAc(b1-4)GlcNAc
# In short: as §1
# [11] = biological target: Fuc(a1-2)Gal(b1-4)[Fuc(a1-3)]GlcNAc(b1-3)Gal(b1-4)[Fuc(a1-3)]GlcNAc
# In short: as §1
# [12] = biological target: Fuc(a1-2)Gal(b1-4)[Fuc(a1-3)]GlcNAc(b1-3)Gal(b1-4)[Fuc(a1-3)]GlcNAc(b1-3)Gal(b1-4)[Fuc(a1-3)]GlcNAc
# In short: as §1
# [13] = biological target: Fuc(a1-2)Gal(b1-4)[Fuc(a1-3)]GlcNAc(b1-3)GalNAc
# In short: as §1
# [14] = biological target: Fuc(a1-2)Gal(b1-4)[Fuc(a1-3)]GlcNAc(b1-3)[Neu5Ac(a2-6)Gal(b1-4)GlcNAc(b1-6)]Gal(b1-4)Glc
# In short: as §1
# [15] = biological target: Fuc(a1-2)Gal3S(b1-4)GlcNAc
# In short: as §1
# [16] = biological target: Fuc(a1-2)Gal6S(b1-3)GlcNAc
# In short: as §1
# [17] = biological target: Fuc(a1-2)Gal6S(b1-3)GlcNAc6S
# In short: as §1
# Fuc(a1-2)Gal6S(b1-4)Glc = biological target: Fuc(a1-2)Gal6S(b1-4)Glc
# In short: as §1
# [18] = biological target: Fuc(a1-2)Gal6S(b1-4)Glc6S
# In short: as §1
# Fuc(a1-2)[Gal(a1-3)]Gal = biological target: Fuc(a1-2)[Gal(a1-3)]Gal
# In short: as §1
# [19] = biological target: Fuc(a1-2)[Gal(a1-3)]Gal(b1-3)GalNAc
# In short: as §1
# [20] = biological target: Fuc(a1-2)[Gal(a1-3)]Gal(b1-3)GalNAc(b1-3)Gal(a1-4)Gal(b1-4)Glc
# In short: as §1
# [21] = biological target: Fuc(a1-2)[Gal(a1-3)]Gal(b1-3)GlcNAc
# In short: as §1
# [22] = biological target: Fuc(a1-2)[Gal(a1-3)]Gal(b1-3)GlcNAc(b1-2)Man(a1-3)[Fuc(a1-2)[Gal(a1-3)]Gal(b1-3)GlcNAc(b1-2)Man(a1-6)]Man(b1-4)GlcNAc(b1-4)GlcNAc
# In short: as §1
# [23] = biological target: Fuc(a1-2)[Gal(a1-3)]Gal(b1-3)GlcNAc(b1-2)Man(a1-3)[Fuc(a1-2)[Gal(a1-3)]Gal(b1-3)GlcNAc(b1-2)Man(a1-6)]Man(b1-4)GlcNAc(b1-4)[Fuc(a1-6)]GlcNAc
# In short: as §1
# [24] = biological target: Fuc(a1-2)[Gal(a1-3)]Gal(b1-3)GlcNAc(b1-3)GalNAc
# In short: as §1
# [25] = biological target: Fuc(a1-2)[Gal(a1-3)]Gal(b1-3)GlcNAc(b1-6)GalNAc
# In short: as §1
# [26] = biological target: Fuc(a1-2)[Gal(a1-3)]Gal(b1-4)Glc
# In short: as §1
# [27] = biological target: Fuc(a1-2)[Gal(a1-3)]Gal(b1-4)GlcNAc
# In short: as §1
# [28] = biological target: Fuc(a1-2)[Gal(a1-3)]Gal(b1-4)GlcNAc(b1-2)Man
# In short: as §1
# [29] = biological target: Fuc(a1-2)[Gal(a1-3)]Gal(b1-4)GlcNAc(b1-2)Man(a1-3)[Fuc(a1-2)[Gal(a1-3)]Gal(b1-4)GlcNAc(b1-2)Man(a1-6)]Man(b1-4)GlcNAc(b1-4)GlcNAc
# In short: as §1
# [30] = biological target: Fuc(a1-2)[Gal(a1-3)]Gal(b1-4)GlcNAc(b1-2)Man(a1-3)[Fuc(a1-2)[Gal(a1-3)]Gal(b1-4)GlcNAc(b1-2)Man(a1-6)]Man(b1-4)GlcNAc(b1-4)[Fuc(a1-6)]GlcNAc
# In short: as §1
# [31] = biological target: Fuc(a1-2)[Gal(a1-3)]Gal(b1-4)GlcNAc(b1-3)GalNAc
# In short: as §1
# [32] = biological target: Fuc(a1-2)[Gal(a1-3)]Gal(b1-4)GlcNAc(b1-3)[Fuc(a1-2)[Gal(a1-3)]Gal(b1-4)GlcNAc(b1-6)]GalNAc
# In short: as §1
# [33] = biological target: Fuc(a1-2)[Gal(a1-3)]Gal(b1-4)GlcNAc(b1-6)GalNAc
# In short: as §1
# [34] = biological target: Fuc(a1-2)[Gal(a1-3)]Gal(b1-4)[Fuc(a1-3)]Glc
# In short: as §1
# [35] = biological target: Fuc(a1-2)[Gal(a1-3)]Gal(b1-4)[Fuc(a1-3)]GlcNAc
# In short: as §1
# [36] = biological target: Fuc(a1-2)[Gal(a1-3)]Gal(b1-4)[Fuc(a1-3)]GlcNAc(b1-3)GalNAc
# In short: as §1
# [37] = biological target: Fuc(a1-2)[Gal(a1-4)]Gal(b1-4)GlcNAc
# In short: as §1
# [38] = biological target: Fuc(a1-2)[GalNAc(a1-3)]Gal
# In short: as §1
# [39] = biological target: Fuc(a1-2)[GalNAc(a1-3)]Gal(b1-3)GalNAc(a1-3)[Fuc(a1-2)]Gal(b1-4)GlcNAc
# In short: as §1
# [40] = biological target: Fuc(a1-2)[GalNAc(a1-3)]Gal(b1-3)GalNAc(b1-3)Gal(a1-4)Gal(b1-4)Glc
# In short: as §1
# [41] = biological target: Fuc(a1-2)[GalNAc(a1-3)]Gal(b1-3)GlcNAc
# In short: as §1
# [42] = biological target: Fuc(a1-2)[GalNAc(a1-3)]Gal(b1-3)GlcNAc(b1-2)Man(a1-3)[Fuc(a1-2)[GalNAc(a1-3)]Gal(b1-3)GlcNAc(b1-2)Man(a1-6)]Man(b1-4)GlcNAc(b1-4)GlcNAc
# In short: as §1
# [43] = biological target: Fuc(a1-2)[GalNAc(a1-3)]Gal(b1-3)GlcNAc(b1-2)Man(a1-3)[Fuc(a1-2)[GalNAc(a1-3)]Gal(b1-3)GlcNAc(b1-2)Man(a1-6)]Man(b1-4)GlcNAc(b1-4)[Fuc(a1-6)]GlcNAc
# In short: as §1
binder,measurement,setting,value
"AT1G77380(17) (Arabidopsis thaliana), Q39134 (protein) MVQNHQTVLAVDMPQTGGSKYLDDDGKNKRTGSVWTASAHIITAVIGSGVLSLAWATAQLGWLAGPVVMLLFSAVTYFTSSLLAACYRSGDPISGKRNYTYMDAVRSNLGGVKVTLCGIVQYLNIFGVAIGYTIASAISMMAIKRSNCFHKSGGKDPCHMNSNPYMIAFGLVQILFSQIPDFDQLWWLSILAAVMSFTYSSAGLALGIAQVVVNGKVKGSLTGISIGAVTETQKIWRTFQALGDIAFAYSYSIILIEIQDTVKSPPSEEKTMKKATLVSVSVTTMFYMLCGCMGYAAFGDLSPGNLLTGFGFYNPYWLLDIANAAIVIHLIGAYQVYCQPLFAFIEKQASIQFPDSEFIAKDIKIPIPGFKPLRLNVFRLIWRTVFVIITTVISMLLPFFNDVVGLLGALGFWPLTVYFPVEMYIAQKKIPRWSTRWVCLQVFSLGCLVVSIAAAAGSIAGVLLDLKSYKPFRSEY",glycan array binding signal (z-score),[1],-0.469
same,glycan array binding signal (z-score),[2],-0.084
same,glycan array binding signal (z-score),[3],0.521
same,glycan array binding signal (z-score),[4],-0.495
same,glycan array binding signal (z-score),[5],2.76
same,glycan array binding signal (z-score),[6],-0.513
same,glycan array binding signal (z-score),[7],-0.166
same,glycan array binding signal (z-score),[8],-0.89
same,glycan array binding signal (z-score),[9],-0.175
same,glycan array binding signal (z-score),[10],-0.413
same,glycan array binding signal (z-score),[11],-0.559
same,glycan array binding signal (z-score),[12],-0.148
same,glycan array binding signal (z-score),[13],0.277
same,glycan array binding signal (z-score),[14],1.42
same,glycan array binding signal (z-score),[15],0.734
same,glycan array binding signal (z-score),[16],-0.387
same,glycan array binding signal (z-score),[17],0.89
same,glycan array binding signal (z-score),Fuc(a1-2)Gal6S(b1-4)Glc,-0.068
same,glycan array binding signal (z-score),[18],0.92
same,glycan array binding signal (z-score),Fuc(a1-2)[Gal(a1-3)]Gal,0.342
same,glycan array binding signal (z-score),[19],-0.039
same,glycan array binding signal (z-score),[20],0.171
same,glycan array binding signal (z-score),[21],-0.337
same,glycan array binding signal (z-score),[22],-0.365
same,glycan array binding signal (z-score),[23],0.12
same,glycan array binding signal (z-score),[24],-0.109
same,glycan array binding signal (z-score),[25],-0.075
same,glycan array binding signal (z-score),[26],-0.473
same,glycan array binding signal (z-score),[27],-0.468
same,glycan array binding signal (z-score),[28],-0.68
same,glycan array binding signal (z-score),[29],-0.646
same,glycan array binding signal (z-score),[30],2.16
same,glycan array binding signal (z-score),[31],0.897
same,glycan array binding signal (z-score),[32],0.458
same,glycan array binding signal (z-score),[33],-0.886
same,glycan array binding signal (z-score),[34],-0.822
same,glycan array binding signal (z-score),[35],-0.151
same,glycan array binding signal (z-score),[36],-0.782
same,glycan array binding signal (z-score),[37],1.72
same,glycan array binding signal (z-score),[38],1.61
same,glycan array binding signal (z-score),[39],-0.36
same,glycan array binding signal (z-score),[40],4.03
same,glycan array binding signal (z-score),[41],-0.205
same,glycan array binding signal (z-score),[42],-0.86
same,glycan array binding signal (z-score),[43],-0.716

# 9 neighbouring records already listed:
binder,measurement,setting,value
"AT1G77380(17) (Arabidopsis thaliana), Q39134 (protein) MVQNHQTVLAVDMPQTGGSKYLDDDGKNKRTGSVWTASAHIITAVIGSGVLSLAWATAQLGWLAGPVVMLLFSAVTYFTSSLLAACYRSGDPISGKRNYTYMDAVRSNLGGVKVTLCGIVQYLNIFGVAIGYTIASAISMMAIKRSNCFHKSGGKDPCHMNSNPYMIAFGLVQILFSQIPDFDQLWWLSILAAVMSFTYSSAGLALGIAQVVVNGKVKGSLTGISIGAVTETQKIWRTFQALGDIAFAYSYSIILIEIQDTVKSPPSEEKTMKKATLVSVSVTTMFYMLCGCMGYAAFGDLSPGNLLTGFGFYNPYWLLDIANAAIVIHLIGAYQVYCQPLFAFIEKQASIQFPDSEFIAKDIKIPIPGFKPLRLNVFRLIWRTVFVIITTVISMLLPFFNDVVGLLGALGFWPLTVYFPVEMYIAQKKIPRWSTRWVCLQVFSLGCLVVSIAAAAGSIAGVLLDLKSYKPFRSEY",glycan array binding signal (z-score),[17],0.89
same,glycan array binding signal (z-score),Fuc(a1-2)Gal6S(b1-4)Glc,-0.068
same,glycan array binding signal (z-score),[18],0.92
same,glycan array binding signal (z-score),Fuc(a1-2)[Gal(a1-3)]Gal,0.342
same,glycan array binding signal (z-score),[19],-0.039
same,glycan array binding signal (z-score),[20],0.171
same,glycan array binding signal (z-score),[21],-0.337
same,glycan array binding signal (z-score),[22],-0.365
same,glycan array binding signal (z-score),[23],0.12
